These results are taken from PubChem BioAssay AID1347423 (Functional Genomics Laboratory (NCATS/FGL), 2020).

Screen size: about 52,000 sequences; about 210 (0.4%) were called active.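 The calls were made as follows: active = gene whose silencing raises cell survival under the drug, median off-target-corrected z-score across its silencing RNAs 2 or more; inactive = the rest.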 The list shows a part of the results.

A short description of the assay: Resistance to Poly (ADP-Ribose) Polymerase inhibitor: Gene Identification via Genome-wide siRNA Screen. The settings on record: mouse BRCA2 R2336H ES cells, olaparib, CellTiter-Glo viability; hits give high values. In outline: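 Mouse BRCA2 R2336H ES cells were reverse-transfected with siRNA (20 nM final), treated at 48 h with 500 nM olaparib, and read by CellTiter-Glo after 72 h. Scores: MAD-based z per siRNA, median per gene, seed off-target correction.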
Regarding GGCGGUUCAAAUGUCCUCATT against Fut2, the z-score is inactive: -0.209.
Consider CCUCAACCGGCAGUUCUUGTT against Uble1b, for which the z-score is inactive: 0.309.
Under GGCUCGAAGGAAAUGAGUUTT against Dppa3 stands inactive: -1.19; under GGACAUGCAGCAAAUCCAUTT against Ninj1, inactive: 1.44.
The same measure for GGUGACAAACAAAAACAAATT against Zdhhc14: inactive: 0.855.
The same measure for GGGUCUUGUGAGAAAGUAUTT against Fads1: inactive: 0.418.
As for GGUUUGAGAAUUUGACUUCTT against BC020025, the z-score is inactive: 0.265.
Under “GGAACAGCAGCACUCAGACTT against 6030419C18Rik” stands inactive: -0.465.
In the case of GGGAGUAGAUUCCAUUCCATT against Rnpep, the z-score was inactive: 0.61.
Under CCUACUACACCACUUGGGUTT against Dpm2 stands inactive: 0.352.
Under GGAGAACGGCUACAACACATT against Fgf22 stands inactive: 0.343.
Under GGUAUUCUUAGCACACAUGTT against V1re5 stands inactive: -0.509; under CGAGUGACAGCUAAGUAUGTT against AW539964, inactive: -0.383.
Turning to “GCAACAACAACAUUGCCUATT against 4930488E11Rik”, the z-score was inactive: -0.966.
Consider GGAAUUUGAAGACACAGAATT against Arl2bp, for which the z-score is inactive: -0.673.
In the case of “CCAACUCAUUGGAUCUUGCTT against 0610031J06Rik”, the z-score is inactive: 0.394.
As for GGCAGUAGAACAGAUCAGATT against Zfp162, the z-score is inactive: -1.83.
Under “GGCUCUGAUGAAUACAACATT against 2400002F02Rik” stands inactive: -0.439.
With “GCUAAGCACAAUGUGUACATT against 2310069P03Rik”, the z-score is inactive: -2.07.
In the case of GCUUAGAACCCUUUUACAATT against Anp32a, the z-score was inactive: 0.888.
As for GGAAGAGAGACUCAGCUCUTT against Galp, the z-score was inactive: 0.852.
With “GGUCUGCUGUUCAAAAUCATT against 4933417C16Rik”, the z-score was inactive: -0.0551.
In the case of CCAUUAAGCAGCAAUAUUUTT against Pcdhga11, the z-score was inactive: -1.44.
GGUCUUCACACAACGAACUTT against Mxd4: the z-score is inactive: -0.659.
As for “GGAUGCUAAUUUAUGUGCUTT against 2810413I22Rik”, the z-score is inactive: 0.143.
For the sequence GGAAGAAGGGUUUCAACGGTT against Mef2d, the z-score is inactive: 2.26.
On to GCAACUGUUCUACGUCUGATT against Tmprss2, for which the z-score was inactive: -1.33.
Take GGGUCAAAGGUCAAGGCUCTT against Gpr20: the z-score was inactive: 0.17.
Turning to GCUUUGGACGAACGAAUGCTT against Rassf6, the z-score is inactive: -0.296.
The same measure for “GGAAACAGUCCAGAACGAGTT against 2900016D05Rik”: inactive: 0.445.
GGUGGAUCUGAAUAAGUGCTT against Sdhb: the z-score is inactive: -0.33.
As to GGAGACCUUCUGUUUUCUGTT against Ptcd1, the z-score is inactive: -0.019.
Take “GGCUGUGAGAUAGAUCUAATT against E130112L23Rik”: the z-score was inactive: -0.595.
Turning to GGCACGUUCUCGUAUAUCATT against Gpr172b, the z-score is inactive: 0.0317.
As for UGCCACUGCCAAAAAAUAATT against Tex18, the z-score was inactive: -1.76.
As to GGGAUGUAGUAAGCAAAGUTT against Gpc4, the z-score is inactive: 0.712.
The same measure for “CGCAUUUUAGUUCAUCUGUTT against 5730467H21Rik”: inactive: 0.408; for “CCAUAACCCUUAGGAAAAGTT against C030014K22Rik”: inactive: 0.877; for GGGACUGGAAUCAAUGAACTT against Rgn: inactive: 0.374.
Regarding GGAGAAGAAGGUUCUUGCCTT against Hoxb13, the z-score is inactive: 0.183.
For the sequence “GCUAAUCUUUCCUCUGCCCTT against 5230400G24Rik”, the z-score was inactive: 0.388.
On to GCGAUUGAAAUGAGAGCUCTT against Hgd, for which the z-score was inactive: -1.43.
Take “GGGUAUUAAAACCUCACUUTT against 4931406H21Rik”: the z-score was inactive: -2.24.
“GCCUUGGAUAAACCAGACGTT against A930031D07Rik”: the z-score is inactive: 0.368.
For the sequence GCGUGUGGAAGAAAAAGAATT against Nedd8, the z-score was inactive: -3.02.
The same measure for GGGUGAGUACUCUUUAAAUTT against Nudt4: inactive: 0.47; for “CCUAUAAUGGAGAUGAUACTT against 5830435K17Rik”: inactive: 0.0953; for GGCUAACCUGAGCAAACAGTT against Plvap: inactive: 1.4.
As to GCACACACGUAGAAGCGGATT against Erdr1, the z-score was inactive: -0.823.
As to “GAACUCUUCCAGUGGAAGUTT against 2410015N17Rik”, the z-score was inactive: -0.11.
Turning to “GGCACUCAGGAACUUCCUGTT against 1810022C23Rik”, the z-score was inactive: -1.04.
In the case of “GGAAGCAACAACAUAAACUTT against 4933440M02Rik”, the z-score is inactive: -0.217.
Regarding GGAGCUGUCACACCAUGAATT against Twsg1, the z-score was inactive: 1.38.
For the sequence GGAAUCGGUGUAUUCGUUUTT against Sectm1, the z-score was inactive: -0.973.
Under GGCAUGGAGAGGAACUUCUTT against Sn stands inactive: 1.29; under GAAUUUGCCAUUUUCAGUGTT against Cox7c, inactive: -0.476.
With “GGUCAUAGGUACGUAUCCGTT against 6430529G09Rik”, the z-score is inactive: -0.0313.
With GGAAAAAAUAAUGGUGACATT against Msr2, the z-score was inactive: -2.53.
GCCUGUUCCGCCAUUCAUGTT against Fliih: the z-score was inactive: -1.13.
On to GGACAAACUACUUUUGUACTT against Tmprss3, for which the z-score was inactive: 1.11.
In the case of “GGUAAAAAACUGUCCUUCATT against 2810426N06Rik”, the z-score is inactive: -0.272.
In the case of GGAAAAGUUGAGGUUAUCATT against Ggt1, the z-score was inactive: 0.582.
For GGUGUUAAUCCAGUUCAAUTT against Gm1805, the z-score was inactive: 1.99.
Under GGUCUAUAGGAAGAAAUGGTT against Csen stands inactive: 0.432.
With GAACUCCCAACCCUGGCAATT against Klk5, the z-score was inactive: -0.754.
Under GGGUUGAUUAAAGUUUAACTT against Gsh2 stands inactive: 0.244.
As for GCUGUUUUACCUUAAUCCCTT against Tnfsf18, the z-score is inactive: 1.41.
The same measure for GGUUCAGCCAGAAUUUUCGTT against Ebaf: inactive: 0.668; for GGACACAUAAUGUCUACCUTT against Unc93a: inactive: 0.716.
“CGCACAAGUGCUUGAGUUATT against C330001K17Rik”: the z-score is inactive: 0.615.
In the case of GGUUCUGGUGGUGAAUGUGTT against Kcnd1, the z-score is inactive: -1.38.
The same measure for GCCACACACCUUCUAUAAUTT against Ptprs: inactive: -0.0532; for CCAUCAAAUCGAACUGUUUTT against Txndc1: inactive: 1.21.
On to GGAGAUCAAAGAUUUGAUUTT against Pi4k2a, for which the z-score was inactive: -0.451.
For GGCUUCCUCAUCGAUAUAATT against Ccnh, the z-score is inactive: -1.61.
For the sequence GGGUACCUGUCCAAGGUCATT against Mfn2, the z-score is inactive: 0.63.
As for GGUUCACUGUUACACUCUGTT against Pctk2, the z-score is inactive: -0.589.
On to GGACCAGAGUAACUUGAAUTT against Zfp128, for which the z-score is inactive: 0.00435.
On to GCAACAUGGAAUGACCGCUTT against Cul2, for which the z-score is inactive: -0.838.
With “CCAUUAAUUGAUGAUACUCTT against 1700019D03Rik”, the z-score is inactive: -0.881.
As to “GCCAUAUGGUGAAGUCCUATT against D11Ertd530e”, the z-score is inactive: -1.34.
As for CCUGAAUGACCUAGGGCCUTT against Adam8, the z-score was inactive: 0.106.
As to GGAAAGCUCACUAUUGUAUTT against BC011468, the z-score is inactive: -0.668.
Take GGAAGGCAUUUUUCAGGUATT against Popdc3: the z-score was inactive: 0.93.
As for “GGCAAGGAGGAUGACAAAATT against 2310020H19Rik”, the z-score is inactive: 0.34.
The same measure for GGGUUCCAGUUUGUUUCCUTT against Cnbp1: inactive: 0.634; for CCCUAAAAAUUUUACCAAGTT against Mpp6: inactive: 0.117.
GCAUUAGCUGAUCAGCAUATT against Herc3: the z-score was inactive: 0.667.
For the sequence GGUGCAAAGCCCUUUAAGUTT against Klf7, the z-score was inactive: 0.343.
Consider GCCCAAAAAUACUGGAUAUTT against Atp6ap2, for which the z-score is inactive: -1.66.
For the sequence GCCUUCCUGAAUUUAAAGATT against Myo5b, the z-score is inactive: 0.85.
On to CGUUAUUUGAUUUCUUGGATT against Tdrd3, for which the z-score is inactive: 0.176.
The same measure for GCCCGAGAAGUGAAUCUUCTT against Pop7: inactive: 1.59.
The same measure for “CCACACGUGUUUCAAAAUGTT against D13Ertd275e”: inactive: 1.28.
The same measure for GGUAGAAUACGUGUUCCUGTT against Cacna1f: inactive: -1.08.
For the sequence GGGAAUUGAUGAAAGCUCUTT against Tnrc15, the z-score is inactive: 0.888.
As for GGAUAACGAUCCUUUUGACTT against Prss21, the z-score was inactive: -0.177.
Turning to GGUGCUGCUAUUCCUGCACTT against Gpam, the z-score was inactive: 0.317.
“GGCUGUACCCAGCAAAAAGTT against 4930431B11Rik”: the z-score was inactive: 1.2.
Regarding GGCCUAUUUUUUCAUAGUUTT against Ptprs, the z-score is inactive: -0.92.
On to “GGCAGUCACACAGUUUGAATT against B230209C24Rik”, for which the z-score is inactive: -0.416.
With GGAGAAGAAAAAGCGGUACTT against Plxnb2, the z-score is inactive: -1.27.
Consider GGAAAAUCUACAUUCCCUUTT against Ncstn, for which the z-score was inactive: 0.123.
The same measure for CCUGUCCUCAUGACAUGAUTT against Mg29: inactive: 0.595.
